# Measurements taken from patent US7005537B2, “Production of esters” (ExxonMobil Chemical Patents Inc., priority 1999, dated 2006).
# “And” between values parts separate entries of the source, which are not always exact repeats. Identical values can stand only once.
# Test: Absolute Maximum Incremental Reactivity (MIR), grams ozone formed per gram of compound
# [1] = esters of the invention, determined values
Structure (SMILES),Ozone Yield Absolute Reactivities (EBIR scenario),Ozone Yield Absolute Reactivities (MIR scenario),Ozone Yield Absolute Reactivities (MOIR scenario),absolute MIR (Actual measured value),absolute MIR [1]
CC(C)=O [Acetone],0.123,0.472,0.197,,
CC [Ethane],0.172,0.354,0.226,,
"COC(=O)C(C)(C)C [Methyl Pivalate, methyl pivalate (methyl 1,1,1-trimethyl acetate)]",0.098,0.236,0.155,0.236 (Actual measured value) gram ozone produced/gram fluid,0.236 and 0.24
COC(=O)C(C)C [methyl isobutyrate],,,,,0.42
